# Data source: PubChem BioAssay AID493246 (Drosophila RNAi Screening Center, 2011)
# Aim: 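Genome-wide search for dsRNAs that reduce cell number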 (primary screen)
# System: Drosophila Kc and S2R+ cells
# Knock-down reagent: long dsRNA against Drosophila genes
# Measurement: 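Cell number per well after knock-down, printed as raw plate values; calls were based on per-plate z-scores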
# Scale: Kc cell number and S2R+ cell number: higher = more cells remaining
# Hit rule: 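Counted as a hit if cell number falls by a z-score of at least 3 within its plate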
# The deposit covers about 21,000 reagents; below is an unselected part of those with a known target gene and a result. Over the whole deposit, 429 (2%) got an active call. 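Values are raw and not normalised between plates; calls rest on per-plate z-scores that were not deposited.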 A plus sign joins genes that one reagent is predicted to hit. Reagent sequences are not shown. Not stated in the record: the amount of reagent, the time to read-out.
target,amplicon,"Kc cell number, rep 1","Kc cell number, rep 2","S2R+ cell number, rep 1","S2R+ cell number, rep 2",activity call
CG8299,DRSC07139,1.59e6,1.59e6,1.21e6,1.33e6,inactive
CG33230,DRSC08602,1.59e6,1.61e6,1.18e6,1.06e6,inactive
Spn43Ad,DRSC06770,1.46e6,1.54e6,1.28e6,1.37e6,inactive
CG12106,DRSC17805,5.79e5,,9.61e5,,inactive
ps,DRSC15149,1.55e6,1.54e6,1.27e6,1.43e6,inactive
ps,DRSC15151,1.10e6,1.16e6,1.02e6,1.19e6,inactive
ps,DRSC15152,1.23e6,1.22e6,7.51e5,8.71e5,active
ps,DRSC16388,1.58e6,1.06e6,1.06e6,1.19e6,inactive
ci,DRSC17172,1.53e6,1.54e6,1.03e6,1.15e6,inactive
CG32681,DRSC17646,1.26e6,1.66e6,1.16e6,1.17e6,inactive
EbpII,DRSC04637,1.43e6,1.50e6,1.12e6,1.17e6,inactive
CG9855,DRSC12344,1.33e6,1.45e6,1.01e6,1.16e6,inactive
CG17010,DRSC02559,1.38e6,1.41e6,1.17e6,1.24e6,inactive
CG31897,DRSC01020,1.44e6,1.47e6,9.87e5,1.09e6,inactive
gNacalpha,DRSC00654,1.66e6,1.80e6,8.56e5,1.07e6,inactive
CG13040,DRSC09921,1.47e6,1.71e6,1.36e6,1.54e6,inactive
CG8229 + CG33199,DRSC05134,1.45e6,1.45e6,9.22e5,9.78e5,inactive
CG13501,DRSC04146,1.70e6,1.82e6,1.27e6,3.22e5,inactive
CHES-1-like,DRSC18447,1.73e6,1.66e6,1.12e6,1.21e6,inactive
COX5BL,DRSC02123,1.56e6,1.34e6,1.13e6,1.25e6,inactive
CG13438,DRSC06398,1.42e6,1.34e6,9.90e5,1.29e6,inactive
RpL15,DRSC20963,1.01e6,1.10e6,6.57e5,7.94e5,active
Top1,DRSC20295,1.66e6,1.74e6,9.86e5,1.09e6,inactive
bond,DRSC16135,1.43e6,1.52e6,1.07e6,1.10e6,inactive
byn,DRSC11332,1.40e6,1.59e6,1.23e6,1.34e6,inactive
CG11815,DRSC08209,1.51e6,1.32e6,9.31e5,1.28e6,inactive

A few values from the entries so far:
For “Kc cell number, rep 1”, CG33230 [DRSC08602] reads 1.59e6
ps [DRSC15149], S2R+ cell number, rep 1 = 1.27e6
Top1 [DRSC20295], Kc cell number, rep 2 = 1.74e6
For “S2R+ cell number, rep 1”, CG32681 [DRSC17646] reads 1.16e6
For “Kc cell number, rep 1”, Spn43Ad [DRSC06770] is entered as 1.46e6
CG17010 [DRSC02559], Kc cell number, rep 1: 1.38e6

The list goes on:
target,amplicon,"Kc cell number, rep 1","Kc cell number, rep 2","S2R+ cell number, rep 1","S2R+ cell number, rep 2",activity call
colt,DRSC00808,1.28e6,1.31e6,1.01e6,1.09e6,inactive
Nepl20,DRSC14878,1.54e6,1.58e6,1.10e6,1.18e6,inactive
CG6271,DRSC16006,4.91e5,,8.09e5,,inactive
ArfGAP1,DRSC11173,1.56e6,1.56e6,1.37e6,1.43e6,inactive
SCCRO4,DRSC10671,1.52e6,1.61e6,1.26e6,1.36e6,inactive
CG10598,DRSC19358,1.63e6,1.63e6,1.16e6,1.26e6,inactive
CG42580,DRSC20397,1.32e6,1.49e6,1.06e6,1.19e6,inactive
CG10764,DRSC06000,1.43e6,1.47e6,1.08e6,1.18e6,inactive
CG4049,DRSC04443,1.52e6,1.54e6,1.21e6,1.26e6,inactive
Rsph4a,DRSC04338,1.65e6,1.68e6,1.15e6,1.28e6,inactive
Sodh2,DRSC16865,1.69e6,1.89e6,1.33e6,1.40e6,inactive
Tsp42Ec,DRSC06192,1.59e6,1.70e6,1.39e6,1.52e6,inactive
Cpr65Az,DRSC09882,1.62e6,1.58e6,1.34e6,1.25e6,inactive
CG13005,DRSC19524,1.43e6,1.44e6,1.05e6,1.17e6,inactive
CG8298,DRSC07138,1.65e6,1.73e6,1.37e6,1.43e6,inactive
pan,DRSC17176,5.49e5,,7.92e5,,inactive
egg,DRSC04119,1.37e6,1.41e6,1.05e6,1.08e6,inactive
CG33332,DRSC15504,1.39e6,1.47e6,1.24e6,1.39e6,inactive
mat,DRSC08376,1.62e6,1.40e6,1.03e6,1.34e6,inactive
CG5880,DRSC15906,5.00e5,,8.29e5,,inactive
GNBP-like3,DRSC06385,1.72e6,1.72e6,1.24e6,1.51e6,inactive
side-VII,DRSC14578,1.52e6,1.59e6,1.26e6,1.37e6,inactive
Mbs,DRSC09414,1.49e6,1.61e6,1.14e6,1.31e6,inactive
Mbs,DRSC10525,1.67e6,1.67e6,1.32e6,1.35e6,inactive
Mbs,DRSC10553,1.56e6,1.73e6,1.25e6,1.43e6,inactive
CG6428,DRSC18402,1.48e6,1.48e6,9.97e5,1.13e6,inactive
CG42591,DRSC08905,1.43e6,1.42e6,1.13e6,1.25e6,inactive
CG5214,DRSC15739,1.42e6,1.39e6,9.69e5,1.14e6,inactive
CG11562,DRSC00316,1.61e6,1.58e6,1.19e6,1.35e6,inactive
CG12170,DRSC12199,1.34e6,1.35e6,1.12e6,1.19e6,inactive
CG5003,DRSC15694,5.40e5,,7.88e5,,inactive
jumu,DRSC16651,1.26e6,1.25e6,1.13e6,1.16e6,inactive
CG9281,DRSC20179,5.39e5,,8.15e5,,inactive
